Out of some 52,000 sequences screened, about 210 (0.4%) were called active.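 How the source made its calls: active means gene whose silencing raises cell survival under the drug, median off-target-corrected z-score across its silencing RNAs 2 or more; inactive means the rest.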 Some of the results follow.

The assay in a line: Resistance to Poly (ADP-Ribose) Polymerase inhibitor: Gene Identification via Genome-wide siRNA Screen. To be noted: mouse BRCA2 R2336H ES cells, olaparib, CellTiter-Glo viability; active compounds read high. An outline of the steps: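 Genome-wide siRNA screen (3 siRNAs/gene, 20 nM) in mouse ES cells carrying hypomorphic BRCA2 R2336H; olaparib 500 nM added 48 h post-transfection, CellTiter-Glo viability 72 h later. Normalized to plate-median negative control; MAD z-scores, gene median, seed-adjusted.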
For orientation: ATP-based viability assays read luminescence as a measure of living cells.
With GGCAUAGCUGGUCUGAAGATT against Slc3a2, the z-score is inactive: -0.671.
In the case of GGCUGCAUAAAAGCAUUAATT against Aldh1a1 it was inactive: 2.12; in that of “CGCUUCAUGACUUCUGAAUTT against 4930579J09Rik”, inactive: -0.375.
Regarding GCUACGUUACUAGGCAGUGTT against Mapk8ip2, the z-score was inactive: -0.297.
In the case of GGACUCAUAUCCUUACAUATT against AI854703 it was inactive: -0.322.
In the case of GGAGAAACCAGGAUCUAUUTT against Rnf14 it was inactive: 0.203; in that of CCAUGUGAUAUAAAGAGGATT against Apbb2, inactive: -0.909.
In the case of “CCACUCUGGCGAACCCAUUTT against 5730508B09Rik” it was inactive: 0.73; in that of GGCGAGAGAUGUUCGACAATT against MGC36320, inactive: 1.61; in that of GGUUUGUUGUUGUUUUUGGTT against AI854408, inactive: 0.388.
For GGUGAAGACACUCAAGGCUTT against Junb, the z-score was inactive: 0.153.
In the case of GGCUGACCACAUUAUAAGUTT against Ppox it was inactive: 0.276; in that of “GGCAAUCCUAACACAGAAUTT against 1810009H17Rik”, inactive: 1.3; in that of GGUUCCUAAAGUAAAAACCTT against Gnpnat1, inactive: 0.159.
For CCAACAAAAGCCUAUUCGGTT against Hsh2d, the z-score was inactive: -0.734.
Consider GGAUUAAGUGCUCUUGGGUTT against Plscr4, for which the z-score is inactive: -0.12.
Under “GGAAGAGCUAAUCGAUAUCTT against 2810442O16Rik” stands inactive: -0.145; under GGAGACAAACUCAAAACUGTT against Lyplal1, inactive: 1.95; under GGAGAAUAGGAAUGUUUUUTT against Zfp112, inactive: 0.724.
On to GCCAGAAUGUAUCCACGUGTT against Hspa12a, for which the z-score was inactive: 0.451.
In the case of “GGAGCACCUGAUUUAUCCCTT against 1700019F09Rik” it was inactive: 0.397; in that of CCAUCUUGAAGAUUCGUUCTT against Olfr486, inactive: -0.115; in that of GGAUCCUCUCAUUAAGAAATT against Gabra1, inactive: -1.59.
Take CCUGAGCAUGAUGUGAAAUTT against Lgi4: the z-score was inactive: -0.846.
In the case of GGAAAUUGACAGAAUGGUUTT against Gcipip it was inactive: 0.524.
In the case of GGCCAGUGGUUGUCUUAUGTT against Cyp2g1 it was inactive: 0.106.
In the case of “CGGGAUCGUACUAAGCUGATT against 4933411G11” it was inactive: -1.06; in that of GGAUUAAGGACAGUUUGAUTT against Mrpl16, inactive: -1.09.
